# PubChem BioAssay AID1159578, Peter MacCallum Cancer Centre, 2015
# Assay: 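Knock-downs that alter how fast lymphatic endothelial cells migrate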 (primary screen)
# System: human lymphatic endothelial cells
# Reagent: siRNA pool against human genes, 40 nM
# Timing: 48 h after transfection
# Measurement: 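High-content imaging of dye-stained cells in a scratch assay measures filled wound area and nuclei per well; duplicate means given as ratio to mock and robust z-score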
# Reading the numbers: migration robust z-score: higher = faster migration into the scratch; migration relative to mock: higher = more scratch area covered than mock; nuclei per well: higher = more cells in the well
# Rule for the call: 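Pools averaging fewer than 3300 nuclei are never called; remaining pools count as changed when migration robust z lies outside -2 to 2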
# Meaning of the calls: active = migration changed; inactive = no migration change, or too few cells
# This is a random part of about 18,000 reagents. Of all reagents, about 1,030 (5.7%) were called active. 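Inactive calls also include pools with fewer than 3300 nuclei, whose migration was not assessed.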 The raw values are shown without normalisation.
gene symbol,migration robust z-score,migration class with cell-count check,migration relative to mock,"nuclei per well, duplicate mean",activity call
IL15,-1.25,migration z between -2 and 2; enough cells,0.56,6287,inactive
PABIR3,1.1,migration z between -2 and 2; enough cells,1.17,5716,inactive
ADAD2,0.02,migration z between -2 and 2; enough cells,0.88,5464,inactive
TMEM151A,0.21,migration z between -2 and 2; enough cells,0.94,5874,inactive
RBP2,-0.6,migration z between -2 and 2; enough cells,0.72,5486,inactive
NDC1,0.64,migration z between -2 and 2; enough cells,1.05,6296,inactive
IFT70B,-0.72,migration z between -2 and 2; enough cells,0.7,5677,inactive
DYNC1LI1,0.83,migration z between -2 and 2; enough cells,0.96,5663,inactive
MLLT3,1.37,migration z between -2 and 2; enough cells,1.24,5716,inactive
CARD9,-0.32,migration z between -2 and 2; enough cells,0.8,4921,inactive
CRYBB3,-1.43,migration z between -2 and 2; enough cells,0.52,5495,inactive
VTI1A,0.46,migration z between -2 and 2; enough cells,0.9,4488,inactive
FOLR3,-0.8,migration z between -2 and 2; enough cells,0.68,4890,inactive
ZNF33A,0.03,migration z between -2 and 2; enough cells,0.81,5366,inactive
CPTP,-0.98,migration z between -2 and 2; enough cells,0.63,5494,inactive
CEACAM6,-0.68,migration z between -2 and 2; enough cells,0.71,5492,inactive
DZIP1L,-0.12,migration z between -2 and 2; enough cells,0.86,5988,inactive
OIT3,0.36,migration z between -2 and 2; enough cells,0.88,5302,inactive
SERPINA12,0.5,migration z between -2 and 2; enough cells,1.02,5166,inactive
DOCK11,-0.36,migration z between -2 and 2; enough cells,0.79,5155,inactive
H2AC14,0.09,migration z between -2 and 2; enough cells,0.91,5831,inactive
RAB11FIP4,0.46,migration z between -2 and 2; enough cells,1,4572,inactive
C8B,0.9,migration z between -2 and 2; enough cells,1.12,5691,inactive
DIAPH1,0.7,migration z between -2 and 2; enough cells,1.06,5240,inactive
IDH3G,-1.22,migration z between -2 and 2; enough cells,0.57,6056,inactive
PCGF3,0.13,migration z between -2 and 2; enough cells,0.83,3884,inactive
CLDN12,1.03,migration z between -2 and 2; enough cells,1.16,6084,inactive
ATP2C2,-0.5,migration z between -2 and 2; enough cells,0.75,6914,inactive
TDG,0.02,migration z between -2 and 2; enough cells,0.81,4470,inactive
TRPM3,-3.45,under 3300 nuclei; migration not judged,0.14,3046,inactive
SGSM2,0.54,migration z between -2 and 2; enough cells,1.02,6026,inactive
CCDC183,0.93,migration z between -2 and 2; enough cells,1.12,5961,inactive
UBE2D2,-0.02,migration z between -2 and 2; enough cells,0.8,6708,inactive
OR4D5,-0.09,migration z between -2 and 2; enough cells,0.86,7504,inactive
PBLD,0.02,migration z between -2 and 2; enough cells,0.89,6142,inactive
PLSCR4,0.88,migration z between -2 and 2; enough cells,0.98,5150,inactive
OR11A1,-1.06,migration z between -2 and 2; enough cells,0.62,6049,inactive
PPARGC1A,0.26,migration z between -2 and 2; enough cells,0.86,6126,inactive
VASP,0.54,migration z between -2 and 2; enough cells,1.03,6290,inactive
